Test results taken from ChEMBL document CHEMBL1157572 (J Med Chem, 2010).

Columns and labels:
Type in all cases: functional, cell-based
KB = assay: Antiproliferative activity against human KB cells after 72 hrs by methylene blue dye assay
MKN-45 = assay: Antiproliferative activity against human MKN45 cells after 72 hrs by methylene blue dye assay; details: MKN-45, 72 h
HT-29 = assay: Antiproliferative activity against human HT-29 cells after 72 hrs by methylene blue dye assay; details: HT-29, 72 h

COc1cc2c(c(OC)c1OC)-c1ccc(OC)c(=O)cc1[C@@H](NC(C)=O)CC2 [COLCHICINE]
IC50 (KB): 12 nM | IC50 (MKN-45): 12.4 nM | IC50 (HT-29): 13.2 nM
